Publication PMC6127989, “Cytosolic GAPDH as a redox-dependent regulator of energy metabolism” (BMC Plant Biology, 2018)
These are yes or no findings as the source states them, for the method shown. Binding seen in cells or lysates may run through a third protein. Some binding calls cover weakened binding; strength is not graded here. Where a sequence is shown, tags or fusion partners need not be part of it.

Sequences of proteins named here, by UniProt entry; tags and fusion partners are left off.
UniProt P25858: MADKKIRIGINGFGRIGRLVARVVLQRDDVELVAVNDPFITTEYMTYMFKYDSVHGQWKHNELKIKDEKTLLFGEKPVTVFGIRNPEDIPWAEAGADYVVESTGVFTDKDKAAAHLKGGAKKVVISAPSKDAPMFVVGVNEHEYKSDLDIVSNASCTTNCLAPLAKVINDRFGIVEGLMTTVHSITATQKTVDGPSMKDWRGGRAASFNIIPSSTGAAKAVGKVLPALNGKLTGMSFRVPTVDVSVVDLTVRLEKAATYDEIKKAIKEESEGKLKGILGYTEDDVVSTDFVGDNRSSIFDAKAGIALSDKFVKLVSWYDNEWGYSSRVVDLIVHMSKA
UniProt Q9FX54: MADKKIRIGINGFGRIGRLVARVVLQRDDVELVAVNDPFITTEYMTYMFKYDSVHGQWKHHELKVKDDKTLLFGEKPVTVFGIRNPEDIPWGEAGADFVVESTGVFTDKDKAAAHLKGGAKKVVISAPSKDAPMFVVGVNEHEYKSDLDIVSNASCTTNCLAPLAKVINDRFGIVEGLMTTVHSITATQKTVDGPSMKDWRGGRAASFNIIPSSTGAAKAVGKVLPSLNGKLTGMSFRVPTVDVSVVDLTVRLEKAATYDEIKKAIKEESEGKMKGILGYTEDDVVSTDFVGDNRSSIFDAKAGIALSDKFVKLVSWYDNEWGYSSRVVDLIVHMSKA

What was measured:
[1] = molecular target: GapC1-YFPNE (GapC1 fused to the N-terminal half of YFP) (A. thaliana) (UniProt P25858); assay: split reporter; split-YFP in transiently co-transformed Arabidopsis mesophyll protoplasts, 16 h at 22 °C; treated with DTT, 0.2 mM H2O2 or 0.05 mM GSNO before confocal microscopy; bZip63-mCherry as nuclear marker
[2] = molecular target: GapC2-YFPNE (GapC2 fused to the N-terminal half of YFP) (A. thaliana) (UniProt Q9FX54); assay: as above

- binding [1]: binds
- binding [2]: binds
B1: recombinant thioredoxin Trx-h3 from A. thaliana (natural protein, UniProt Q42403 1-118, looked up)
chain: MAAEGEVIACHTVEDWTEKLKAANESKKLIVIDFTATWCPPCRFIAPVFADLAKKHLDVVFFKVDVDELNTVAEEFKVQAMPTFIFMKEGEIKETVVGAAKEEIIANLEKHKTVVAAA
notes: Thioredoxin h3 (Trx-h3), Arabidopsis thaliana
